The values below come from PubChem BioAssay AID2685 (National Center for Advancing Translational Sciences (NCATS), 2010).

The other results are listed elsewhere or left out. Shown are side measurements of this screen, not its main read-out; they come without a call. The list favours compounds with an active or inconclusive main result. Potencies come from curve fits of mixed quality, noted in brackets.

This experiment in a line: qHTS Assay for Lipid Storage Modulators in Drosophila S3 Cells.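 For cell number change: cells counted by Cell Tracker Red CMTPX staining in the red channel.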 The note with it: BODIPY lipid droplet fluorescence, 18-24 h; for cell number change: measured here: cell count max response, cells fed with added oleic acid. In short, it runs like this:
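Laser-scanning cytometry quantifies lipid droplet accumulation (500–530 nm total intensity; droplet/cell object ratio) in oleic acid-fed (400 uM added) Drosophila S3 cells treated with a concentration series. 20 uM Triacsin C defined 100% inhibition.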

[1] abbreviates: measured here: lipid fluorescence (Fed channel) AC50, cells fed with added oleic acid.
Setting [2] is: measured here: cell number channel AC50, cells fed with added oleic acid.

As for `COc1ccc(-c2cccc(C(=O)N3CCOCC3)c2)cc1`, the cell number change stood at 20.1%. For the same compound, the AC50 under setting [1] was 29.1 µM [rising, single point].

On to `O=C(CC1C(=O)NCCN1C(=O)c1ccccc1)Nc1cc(Cl)ccc1Cl` (centres undefined), for which the AC50 reads like this: under setting [2], 2.91 µM [rising, partial curve]; under setting [1], 6.51 µM [rising, single point]. As to `CCOC(=O)c1c(C2CCN(C(=O)OCC)CC2)nc2ccccn12`, the cell number change is -9.35%. In addition, the AC50 under setting [1] was 29.1 µM [falling, single point].

For the compound `O=C(Nc1ccccc1C(F)(F)F)NC1CCCCCCC1`, the AC50 is, setting by setting: under setting [2], 6.51 µM [rising, single point]; under setting [1], 6.51 µM [rising, single point]. With `Cc1ccc(-c2cc(C(=O)NCC3CCCO3)c3ccccc3n2)cc1C` (centres undefined), the cell number change worked out at 56.8%. In addition, the AC50 under setting [2] is 6.51 µM [rising, partial curve, poor fit]. For the same compound, the AC50 under setting [1] was 6.51 µM [rising, partial curve, poor fit]. For the compound `COC(=O)c1ccc2c(C)c(C(C)(C)O)[nH]c2c1`, the cell number change was found to be 12.9%. Moreover, under setting [1], the AC50 was 29.1 µM [rising, single point]. On to `Brc1ccc(-c2nc(-c3ccccn3)no2)o1`, for which the cell number change worked out at 3.09%. `S=c1[nH]ncn1/N=C/c1ccc(Br)cc1`: the cell number change is -12.5%. As to `O=C(NNC(=O)c1cnccn1)c1ccc(Cl)c(Cl)c1`, the cell number change is -11.6%. In addition, the AC50 under setting [1] was 18.4 µM [falling, single point]. In the case of `CC12CC3(C)CC(C)(C1)CC(C(=O)Nc1nn[nH]n1)(C2)C3`, the cell number change was 0.779%. Further, the concentration at half-maximal activity (AC50) under setting [2] is 1.3 µM [falling, partial curve]. As to `CCCN(CC(=O)Nc1cccc(Br)c1)CC(=O)Nc1ccc(F)c(F)c1F`, the cell number change is -21.6%. In addition, the AC50 under setting [1] is 18.4 µM [falling, single point]. Take `O=c1cc(CN2CCN(c3ccccc3F)CC2)c2cc3c(cc2o1)CCCC3`: the AC50 under setting [1] is 0.164 µM [rising, full curve, poor fit].

For `COc1ccc(CCNC(=O)CN2CCN(S(=O)(=O)c3ccc(Cl)cc3)CC2)cc1OC`, the cell number change is 24.1%.

With `CN(CC(N)=O)S(=O)(=O)c1ccc(F)cc1`, the cell number change was -23.8%. In addition, under setting [1], the AC50 was 4.61 µM [falling, single point]. `O=C(Nc1cccc(F)c1)N1CCCCCC1`: the cell number change is 16.8%. Turning to `Cc1occc(=O)c1OCc1ccc(F)cc1`, the cell number change amounted to 49.5%. The AC50 under setting [2] was 10.3 µM [rising, partial curve]. `CCN(CC)S(=O)(=O)c1cccc(NC(=O)c2ccccc2Br)c1`: the AC50 under setting [2] was 0.82 µM [rising, single point] and the AC50 under setting [1] is 29.1 µM [rising, single point]. As for `CCOC(=O)c1ccc(NC(=O)COc2ccc(CNCCO)cc2OCC)cc1`, the cell number change came to 13.2%. The AC50 under setting [1] was 20.6 µM [falling, single point]. Take `O=C(N/C=C\c1ccccc1)NCc1ccc(Cl)cc1Cl`: the cell number change is -29.1%.

Take `CCc1ccccc1NC(=O)CC1S/C(=N\c2nccs2)N(CC)C1=O` (centres undefined): the cell number change was -15.2%. In addition, under setting [1], the AC50 was 5.8 µM [rising, partial curve].

As to `COc1cccc(/C=C/C(=O)c2c(O)cc(C)oc2=O)c1O`, the cell number change is 2.56%. For the same compound, under setting [1], the AC50 was 0.0731 µM [falling, full curve, poor fit]. With `O=C(CSc1nnc(CNc2ccc(F)cc2)n1CC1CCCO1)N1CCOCC1` (centres undefined), the cell number change is -3.63%. The concentration at half-maximal activity (AC50) under setting [1] is 0.731 µM [falling, single point]. For `O=S(=O)(Nc1ccc2cn[nH]c2c1)c1ccc(Cl)s1`, the cell number change is 32.6%. Further, the AC50 under setting [2] is 0.231 µM [rising, partial curve, poor fit]. `CCN(NC(=O)C(O)(c1ccccc1)c1ccccc1)C(=O)c1ccccc1`: the cell number change is -33.3%. Moreover, under setting [2], the AC50 was 20.6 µM [falling, partial curve, poor fit]. The AC50 under setting [1] is 29.1 µM [falling, single point]. Regarding `CC(OC(=O)Cc1c[nH]c2ccccc12)C(=O)Nc1ccccc1F` (centres undefined), the AC50 reads like this: under setting [2], 6.51 µM [falling, single point]; under setting [1], 10.3 µM [falling, partial curve]. Turning to `CN(NC(=O)C(C)(C)C)c1nc(-c2ccccc2)nnc1C(F)(F)F`, the AC50 was 0.651 µM [rising, partial curve] under setting [2] and 1.16 µM [rising, partial curve] under setting [1].

In the case of `CC(C1CC1)N(Cc1ccccc1)C(=S)Nc1cccc(C(F)(F)F)c1` (centres undefined), the cell number change is -1.81%. Moreover, the AC50 under setting [1] was 0.82 µM [falling, full curve, poor fit].

As for `CC(=O)N1CCCc2cc(S(=O)(=O)N3CCCC(C)C3)ccc21` (centres undefined), the cell number change was 21.4%. Besides, the AC50 under setting [1] is 13 µM [rising, partial curve, poor fit].

As to `O=C(NC1CC1)c1c(O)c2ccccc2[nH]c1=O`, the AC50 under setting [2] was 5.8 µM [falling, single point]. For `O=C(Nc1ccccc1F)C1CCCN(S(=O)(=O)c2ccccc2)C1` (centres undefined), the cell number change was 33.2%. As for `COC(=O)C1=NN(C(=O)c2ccc(C)cc2)C(O)(c2ccc(Cl)cc2)C1` (centres undefined), the cell number change was determined as 72.2%. For the same compound, the half-maximal activity concentration (AC50) under setting [2] is 29.1 µM [rising, single point]. In addition, the AC50 under setting [1] was 29.1 µM [rising, single point]. Consider `COc1ccccc1-c1cc(-c2ccccc2)nc(SC(C(N)=O)c2ccccc2)c1C#N` (centres undefined), for which the cell number change is -47.2%. Further, under setting [2], the AC50 is 23.1 µM [falling, partial curve, poor fit].

Take `Cc1ccc(-c2nn(Cc3ccccc3)cc2C(=O)N2CCN(c3ccccn3)CC2)cc1`: the cell number change was -3.06%. The AC50 under setting [2] was 2.06 µM [rising, partial curve, poor fit]. Moreover, under setting [1], the AC50 was 1.3 µM [rising, full curve]. Take `CCOc1ccc(NC(=O)C2CCN(S(=O)(=O)c3cccnc3)CC2)cc1`: the AC50 under setting [2] is 0.326 µM [rising, full curve].

In the case of `CN(C)c1ccc(S(=O)(=O)N2CCCCC2)cc1NC(=O)C1CSC2(C)CCC(=O)N12` (centres undefined), the cell number change was 2.69%. Further, the AC50 under setting [1] is 29.1 µM [rising, single point]. As for `COc1ccc(CCn2c(C)cc3c(c2=O)C(c2ccc4c(c2)OCO4)C(C#N)=C(N)O3)cc1OC` (centres undefined), the cell number change was -16.6%. For the same compound, the AC50 under setting [1] is 0.651 µM [rising, partial curve]. On to `CC(C)C(=O)Nc1ccc(C(=O)CSc2nnc(C3CC3)n2C2CC2)cc1`, for which the cell number change is -36.3%. The AC50 under setting [2] is 3.26 µM [falling, full curve]. The AC50 under setting [1] was 3.66 µM [falling, full curve]. Consider `O=C(O)c1ccccc1S`, for which the cell number change is -5.83%. Moreover, the AC50 under setting [2] is 1.03 µM [falling, full curve, poor fit]. With `COc1ccc(S(=O)(=O)N2CCOC23CCN(S(=O)(=O)c2ccc(F)cc2C)CC3)cc1`, the cell number change is -14%. Under setting [1], the AC50 was 18.4 µM [falling, partial curve, poor fit]. Consider `CCN(C(=O)Cn1cnc2cc([N+](=O)[O-])ccc2c1=O)C1CCS(=O)(=O)C1` (centres undefined), for which the AC50 under setting [2] is 0.206 µM [falling, full curve, poor fit].

`Cc1ccc2c(c1)N(C(=O)CCC(=O)NC1CCC(C)CC1)CCO2` (centres undefined): the cell number change stood at 3.17%. For the same compound, the AC50 under setting [1] is 16.4 µM [falling, single point]. In the case of `Cc1ccc2c(c1)N(CC(=O)NC1CCCCCC1)C(=O)c1cccnc1O2`, the cell number change was -6.49%. Further, the AC50 under setting [2] is 7.31 µM [falling, partial curve, poor fit]. `COc1ccc(C(=O)NCCS(=O)(=O)NC2CCCC2)cc1`: under setting [2], the AC50 was 6.51 µM [rising, single point].

Turning to `CCNc1nc(Oc2ccc(Cl)cc2Cl)cc(C(F)(F)F)n1`, the cell number change is -98.6%. The AC50 under setting [2] is 29.1 µM [falling, single point]. Also, the AC50 under setting [1] was 29.1 µM [falling, single point]. As to `COCCn1nnnc1C(c1cccc(OC)c1OC)N1CCN(C2CCCCC2)CC1` (centres undefined), the cell number change was -3.96%. Take `Cc1cc(Cl)ccc1OCC(=O)N[C@@H](Cc1ccccc1)c1nc2ccccc2[nH]1`: the cell number change was -53.9%. Besides, the AC50 under setting [2] is 14.6 µM [falling, partial curve, poor fit]. Besides, the AC50 under setting [1] was 16.4 µM [falling, partial curve]. With `COc1ccc(NC(=O)CC2(CC(=O)O)CCCC2)cn1`, the cell number change was -52.1%. Under setting [2], the AC50 is 3.66 µM [falling, full curve]. Under setting [1], the AC50 was 4.61 µM [falling, single point]. In the case of `Cc1ccc(SCCNC(=O)c2ccc(C)c(S(=O)(=O)Nc3ccccc3C)c2)cc1`, the cell number change was -34.6%. Moreover, the AC50 under setting [2] is 3.66 µM [falling, partial curve].

Regarding `CCS(=O)(=O)N1CCC(C(=O)N2CCc3ccccc3C2)CC1`, the cell number change was -20.8%. Also, the concentration at half-maximal activity (AC50) under setting [1] is 1.3 µM [falling, full curve].

Regarding `CCN(CC(=O)N1CCN(C)CC1)S(=O)(=O)c1ccc(Cl)cc1`, the cell number change was -1.01%. In addition, the AC50 under setting [1] is 8.2 µM [falling, partial curve, poor fit]. As for `C=CCN=c1scc(C)n1/N=C/c1ccc(O)c(O)c1`, the cell number change worked out at 25.9%. Further, the AC50 under setting [2] was 0.259 µM [rising, full curve]. In addition, the AC50 under setting [1] was 0.731 µM [rising, full curve]. With `CCN(CC)c1ccc(/C=N/N2CCN(Cc3ccc(C)cc3)CC2)c(O)c1`, the cell number change is -23.8%. Also, under setting [2], the AC50 is 0.013 µM [falling, full curve, poor fit].

In the case of `CCCSc1nsc(N)n1`, the cell number change stood at 1.32%. For the same compound, the AC50 under setting [1] is 23.1 µM [falling, single point]. Turning to `COc1ccc(NS(=O)(=O)c2ccc(Cl)c(N)c2)cc1Br`, the cell number change was -82.1%. Moreover, the AC50 under setting [2] is 29.1 µM [falling, single point]. Besides, the AC50 under setting [1] was 29.1 µM [falling, single point].

Take `CC(C)(C)NC(=O)C(c1cccnc1)N(C(=O)c1ccc(Cl)nc1)C1CCCC1` (centres undefined): the cell number change was -1.44%. The AC50 under setting [1] was 32.6 µM [falling, single point]. For `O=C(Cc1ccc(-n2cccc2)cc1)NCc1ccccc1Cl`, the cell number change is -37.9%. Further, the AC50 under setting [2] is 0.231 µM [falling, partial curve, poor fit]. In the case of `COC(=O)c1ccccc1NC(=O)CSc1nnc(-c2cccc(NC(C)=O)c2)n1C`, the cell number change turned out to be 28%. Also, the AC50 under setting [1] was 0.366 µM [rising, full curve]. As to `CC(c1ccccc1)C1CC(=O)N(C2CCCCC2)C1=O` (centres undefined), the cell number change was -0.237%. Also, the AC50 under setting [1] is 1.84 µM [falling, partial curve].

The AC50 is the concentration at which the activity in the assay is half-maximal. The low end stands for activity at low concentration, the high end for activity only at high concentration.
